Reference: article PMC12402178
No constants are given. Whether binding was seen depends on the method and setting. Sequences can lack the tags named with a protein.

Molecular target: T1, Anillin-GFP (full-length human anillin, isoform 2, 1087 amino acids) (human), Q9NQW6
T1 chain: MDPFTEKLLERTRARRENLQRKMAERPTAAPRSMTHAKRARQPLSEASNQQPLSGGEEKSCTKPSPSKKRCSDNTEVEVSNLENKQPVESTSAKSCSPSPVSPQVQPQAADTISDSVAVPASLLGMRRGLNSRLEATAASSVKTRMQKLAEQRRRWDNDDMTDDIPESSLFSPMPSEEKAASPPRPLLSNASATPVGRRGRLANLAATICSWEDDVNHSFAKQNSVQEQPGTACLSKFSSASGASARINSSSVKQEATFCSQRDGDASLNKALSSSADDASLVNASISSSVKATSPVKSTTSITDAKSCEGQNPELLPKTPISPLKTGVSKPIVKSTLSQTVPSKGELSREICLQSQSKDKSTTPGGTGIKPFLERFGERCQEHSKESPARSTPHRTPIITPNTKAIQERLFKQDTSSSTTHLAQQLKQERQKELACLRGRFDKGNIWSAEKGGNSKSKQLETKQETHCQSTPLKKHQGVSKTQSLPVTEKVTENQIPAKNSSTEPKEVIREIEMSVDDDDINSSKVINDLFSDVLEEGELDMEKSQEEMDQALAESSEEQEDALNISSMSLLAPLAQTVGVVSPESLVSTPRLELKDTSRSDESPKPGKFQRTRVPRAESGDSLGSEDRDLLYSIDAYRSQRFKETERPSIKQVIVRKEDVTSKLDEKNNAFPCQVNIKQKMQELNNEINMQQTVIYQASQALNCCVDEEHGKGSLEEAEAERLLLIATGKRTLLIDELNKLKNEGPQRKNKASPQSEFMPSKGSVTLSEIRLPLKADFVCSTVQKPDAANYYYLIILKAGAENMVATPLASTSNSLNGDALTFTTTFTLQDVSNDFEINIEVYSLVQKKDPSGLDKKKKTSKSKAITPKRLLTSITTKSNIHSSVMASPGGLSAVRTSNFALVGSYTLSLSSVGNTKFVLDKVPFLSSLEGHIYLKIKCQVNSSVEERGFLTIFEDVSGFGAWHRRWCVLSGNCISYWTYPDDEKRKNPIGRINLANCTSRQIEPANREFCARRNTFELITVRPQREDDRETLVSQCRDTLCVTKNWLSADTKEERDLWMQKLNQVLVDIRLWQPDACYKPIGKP
Assay: mass photometry (iSCAT); anillin alone in solution at 5, 15 or 50 nM; both purified
Conditions: remark: other sources report otherwise

binding: no binding (tested: 5, 15 or 50 nM)
B1: Anillin-GFP (full-length human anillin, isoform 2, 1087 amino acids), Q9NQW6-2 1-1087 (protein)
chain: T1 chain
